For test [1], the target named is Nup214 (human (endogenous in HeLa)) (UniProt P35658). The test can be described thus: affinity purification with mass spectrometry.
Test [2] shares this target. The test can be described thus: affinity purification with mass spectrometry. This is another data set of the same source.

By UniProt entry, the sequences of proteins in these tests, tags left out.
UniProt P35658: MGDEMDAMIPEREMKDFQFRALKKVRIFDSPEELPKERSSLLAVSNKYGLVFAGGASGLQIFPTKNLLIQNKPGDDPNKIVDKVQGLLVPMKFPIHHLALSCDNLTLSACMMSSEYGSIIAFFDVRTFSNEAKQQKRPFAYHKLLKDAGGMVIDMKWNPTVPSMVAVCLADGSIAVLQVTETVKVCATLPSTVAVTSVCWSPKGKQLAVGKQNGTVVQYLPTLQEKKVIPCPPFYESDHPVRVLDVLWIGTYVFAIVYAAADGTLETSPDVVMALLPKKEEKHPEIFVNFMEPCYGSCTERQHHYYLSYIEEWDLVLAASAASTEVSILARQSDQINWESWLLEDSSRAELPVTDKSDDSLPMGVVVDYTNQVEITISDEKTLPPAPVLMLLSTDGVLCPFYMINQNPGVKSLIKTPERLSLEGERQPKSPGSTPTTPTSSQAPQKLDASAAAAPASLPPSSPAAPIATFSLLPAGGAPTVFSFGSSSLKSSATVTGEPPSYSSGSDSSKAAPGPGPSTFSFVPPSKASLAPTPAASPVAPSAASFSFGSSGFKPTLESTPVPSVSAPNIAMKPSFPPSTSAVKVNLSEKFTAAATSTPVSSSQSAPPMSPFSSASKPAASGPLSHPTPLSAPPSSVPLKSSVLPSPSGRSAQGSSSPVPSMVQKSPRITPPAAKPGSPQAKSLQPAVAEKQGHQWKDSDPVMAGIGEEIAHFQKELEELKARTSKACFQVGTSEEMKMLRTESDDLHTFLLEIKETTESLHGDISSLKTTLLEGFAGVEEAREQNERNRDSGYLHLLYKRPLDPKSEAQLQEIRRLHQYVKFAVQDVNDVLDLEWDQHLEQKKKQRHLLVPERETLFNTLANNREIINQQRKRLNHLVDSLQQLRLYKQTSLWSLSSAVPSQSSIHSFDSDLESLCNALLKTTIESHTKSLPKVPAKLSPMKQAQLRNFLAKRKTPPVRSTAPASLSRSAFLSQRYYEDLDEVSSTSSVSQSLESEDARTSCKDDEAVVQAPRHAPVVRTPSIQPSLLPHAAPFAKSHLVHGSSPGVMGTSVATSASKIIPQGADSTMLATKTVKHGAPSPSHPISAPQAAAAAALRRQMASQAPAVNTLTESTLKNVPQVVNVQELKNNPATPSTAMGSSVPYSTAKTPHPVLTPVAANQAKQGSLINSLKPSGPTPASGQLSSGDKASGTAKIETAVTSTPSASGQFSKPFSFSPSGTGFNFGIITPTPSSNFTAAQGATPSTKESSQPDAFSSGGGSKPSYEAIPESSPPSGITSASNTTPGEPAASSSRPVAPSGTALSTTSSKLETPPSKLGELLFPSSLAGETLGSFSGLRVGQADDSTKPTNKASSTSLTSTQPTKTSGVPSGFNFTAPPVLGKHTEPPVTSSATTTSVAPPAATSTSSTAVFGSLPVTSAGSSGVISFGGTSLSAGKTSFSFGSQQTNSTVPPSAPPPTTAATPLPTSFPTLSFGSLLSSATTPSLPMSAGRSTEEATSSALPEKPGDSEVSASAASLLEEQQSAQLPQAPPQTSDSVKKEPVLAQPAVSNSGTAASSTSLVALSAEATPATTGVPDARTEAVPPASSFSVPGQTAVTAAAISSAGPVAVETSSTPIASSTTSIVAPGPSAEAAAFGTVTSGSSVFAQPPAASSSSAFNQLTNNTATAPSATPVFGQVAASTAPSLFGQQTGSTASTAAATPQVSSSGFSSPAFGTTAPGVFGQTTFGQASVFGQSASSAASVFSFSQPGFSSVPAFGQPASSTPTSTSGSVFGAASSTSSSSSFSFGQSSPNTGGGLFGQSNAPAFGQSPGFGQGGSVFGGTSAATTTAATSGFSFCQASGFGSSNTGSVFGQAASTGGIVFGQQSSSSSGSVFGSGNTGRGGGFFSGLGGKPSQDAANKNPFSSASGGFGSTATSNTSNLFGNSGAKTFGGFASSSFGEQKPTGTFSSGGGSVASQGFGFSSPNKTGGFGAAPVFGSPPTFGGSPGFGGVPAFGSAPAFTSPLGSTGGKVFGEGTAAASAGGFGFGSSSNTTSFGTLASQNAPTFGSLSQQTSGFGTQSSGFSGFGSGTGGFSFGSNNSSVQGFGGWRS

Read-outs that look alike come from different tables or passages of the source. No constants are given. Whether binding was seen depends on the method and setting. In cells and extracts the contact can be indirect. Here binding means that the protein was enriched with, or labelled near, the bait; the list need not be complete.

On to Nup98 (from UniProt P52948 1-880), for which the binding result in test [1] was “binds”.

B1: Nup96 (protein, UniProt P52948 881-1817)
chain: SKYGLQDSDEEEEEHPSKTSTKKLKTAPLPPASQTTPLQMALNGKPAPPPQSQSPEVEQLGRVVELDSDMVDITQEPVLDTMLEESMPEDQEPVSASTHIASSLGINPHVLQIMKASLLTDEEDVDMALDQRFSRLPSKADTSQEICSPRLPISASHSSKTRSLVGGLLQSKFTSGAFLSPSVSVQECRTPRAASLMNIPSTSSWSVPPPLTSVFTMPSPAPEVPLKTVGTRRQLGLVPREKSVTYGKGKLLMDMALFMGRSFRVGWGPNWTLANSGEQLNGSHELENHQIADSMEFGFLPNPVAVKPLTESPFKVHLEKLSLRQRKPDEDMKLYQTPLELKLKHSTVHVDELCPLIVPNLGVAVIHDYADWVKEASGDLPEAQIVKHWSLTWTLCEALWGHLKELDSQLNEPREYIQILERRRAFSRWLSCTATPQIEEEVSLTQKNSPVEAVFSYLTGKRISEACSLAQQSGDHRLALLLSQFVGSQSVRELLTMQLVDWHQLQADSFIQDERLRIFALLAGKPVWQLSEKKQINVCSQLDWKRSLAIHLWYLLPPTASISRALSMYEEAFQNTSDSDRYACSPLPSYLEGSGCVIAEEQNSQTPLRDVCFHLLKLYSDRHYDLNQLLEPRSITADPLDYRLSWHLWEVLRALNYTHLSAQCEGVLQASYAGQLESEGLWEWAIFVLLHIDNSGIREKAVRELLTRHCQLLETPESWAKETFLTQKLRVPAKWIHEAKAVRAHMESDKHLEALCLFKAEHWNRCHKLIIRHLASDAIINENYDYLKGFLEDLAPPERSSLIQDWETSGLVYLDYIRVIEMLRHIQQVDCSGNDLEQLHIKVTSLCSRIEQIQCYSAKDRLAQSDMAKRVANLLRVVLSLHHPPDRTSDSTPDPQRVPLRLLAPHIGRLPMPEDYAMDELRSLTQSYLRELAVGSL
B1: the binding result in test [2] is listed as “binds”.

For the origin of these results see PMC9168619 (The Journal of Biological Chemistry, 2022).
